Measurements taken from publication PMC2811157.
No constants are given. Whether binding was seen depends on the method and setting. Binding seen in cells or lysates may run through a third protein. Some binding calls cover weakened binding; strength is not graded here.

Sequences of proteins named here, by UniProt entry; tags and fusion partners are left off.
UniProt Q12888: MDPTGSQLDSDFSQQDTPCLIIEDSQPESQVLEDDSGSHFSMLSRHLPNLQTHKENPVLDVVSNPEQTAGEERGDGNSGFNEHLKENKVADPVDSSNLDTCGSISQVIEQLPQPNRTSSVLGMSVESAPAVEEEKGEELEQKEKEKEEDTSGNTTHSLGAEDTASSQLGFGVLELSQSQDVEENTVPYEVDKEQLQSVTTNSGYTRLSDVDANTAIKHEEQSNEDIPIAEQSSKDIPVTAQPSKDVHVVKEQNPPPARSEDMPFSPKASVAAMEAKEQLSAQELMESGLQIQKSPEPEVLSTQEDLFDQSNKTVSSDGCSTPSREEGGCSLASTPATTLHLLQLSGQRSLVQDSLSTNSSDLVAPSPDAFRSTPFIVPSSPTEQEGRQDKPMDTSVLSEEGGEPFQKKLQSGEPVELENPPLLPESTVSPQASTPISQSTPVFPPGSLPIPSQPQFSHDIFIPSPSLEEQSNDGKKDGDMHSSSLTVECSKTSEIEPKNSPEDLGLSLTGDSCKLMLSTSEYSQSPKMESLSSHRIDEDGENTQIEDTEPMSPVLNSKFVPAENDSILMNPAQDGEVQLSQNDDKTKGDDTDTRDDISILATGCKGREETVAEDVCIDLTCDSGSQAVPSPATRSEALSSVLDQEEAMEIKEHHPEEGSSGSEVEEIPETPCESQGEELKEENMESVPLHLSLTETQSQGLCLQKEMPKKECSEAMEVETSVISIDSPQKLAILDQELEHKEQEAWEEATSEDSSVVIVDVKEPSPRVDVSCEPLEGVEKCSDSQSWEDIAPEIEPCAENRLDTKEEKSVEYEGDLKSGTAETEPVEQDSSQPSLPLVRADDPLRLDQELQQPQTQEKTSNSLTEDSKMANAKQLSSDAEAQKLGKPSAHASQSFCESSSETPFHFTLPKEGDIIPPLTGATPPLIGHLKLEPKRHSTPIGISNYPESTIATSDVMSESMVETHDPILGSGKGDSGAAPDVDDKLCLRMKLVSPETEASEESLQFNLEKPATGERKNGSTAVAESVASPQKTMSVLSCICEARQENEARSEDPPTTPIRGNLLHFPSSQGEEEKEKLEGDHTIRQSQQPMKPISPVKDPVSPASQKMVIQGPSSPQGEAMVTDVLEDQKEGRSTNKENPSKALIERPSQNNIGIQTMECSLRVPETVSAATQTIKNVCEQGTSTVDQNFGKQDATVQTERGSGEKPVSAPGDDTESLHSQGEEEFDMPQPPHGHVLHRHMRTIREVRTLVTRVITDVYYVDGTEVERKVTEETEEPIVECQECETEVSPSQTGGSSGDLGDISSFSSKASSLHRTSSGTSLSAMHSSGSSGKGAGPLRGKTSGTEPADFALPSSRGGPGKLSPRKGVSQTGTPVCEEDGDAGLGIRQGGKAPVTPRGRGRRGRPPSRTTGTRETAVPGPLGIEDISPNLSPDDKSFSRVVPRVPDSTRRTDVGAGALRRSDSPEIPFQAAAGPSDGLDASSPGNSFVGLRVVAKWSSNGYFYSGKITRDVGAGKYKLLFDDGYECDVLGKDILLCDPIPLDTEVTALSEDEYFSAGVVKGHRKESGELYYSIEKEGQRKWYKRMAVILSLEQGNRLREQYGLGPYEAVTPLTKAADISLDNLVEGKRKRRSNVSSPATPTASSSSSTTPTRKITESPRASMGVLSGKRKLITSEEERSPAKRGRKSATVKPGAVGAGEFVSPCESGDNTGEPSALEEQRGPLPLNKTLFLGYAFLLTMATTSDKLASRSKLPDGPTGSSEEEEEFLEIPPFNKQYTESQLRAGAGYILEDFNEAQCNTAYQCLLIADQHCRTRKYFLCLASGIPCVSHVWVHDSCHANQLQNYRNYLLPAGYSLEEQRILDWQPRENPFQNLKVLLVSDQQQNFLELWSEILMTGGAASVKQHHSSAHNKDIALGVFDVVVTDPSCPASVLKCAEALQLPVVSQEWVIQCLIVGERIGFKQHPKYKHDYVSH
UniProt P53350: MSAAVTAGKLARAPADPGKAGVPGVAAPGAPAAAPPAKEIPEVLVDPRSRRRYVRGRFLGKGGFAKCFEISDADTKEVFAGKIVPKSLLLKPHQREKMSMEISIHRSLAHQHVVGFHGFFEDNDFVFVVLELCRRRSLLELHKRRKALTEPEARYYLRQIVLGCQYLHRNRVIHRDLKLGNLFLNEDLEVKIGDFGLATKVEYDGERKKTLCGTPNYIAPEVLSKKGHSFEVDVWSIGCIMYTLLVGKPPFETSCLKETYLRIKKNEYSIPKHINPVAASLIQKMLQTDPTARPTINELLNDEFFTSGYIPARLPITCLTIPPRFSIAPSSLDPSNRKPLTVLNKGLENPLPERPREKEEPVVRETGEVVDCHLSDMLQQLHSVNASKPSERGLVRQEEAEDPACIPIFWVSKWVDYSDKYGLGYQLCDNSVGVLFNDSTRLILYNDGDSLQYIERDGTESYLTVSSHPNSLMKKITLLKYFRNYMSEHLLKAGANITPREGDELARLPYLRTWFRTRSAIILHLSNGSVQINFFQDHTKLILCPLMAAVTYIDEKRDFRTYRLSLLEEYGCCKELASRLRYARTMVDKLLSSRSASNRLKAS

Key:
[1] = biological target: p53-binding protein-1 (53BP1), endogenous (human (endogenous in U2OS)) (UniProt Q12888); experiment: co-IP; 53BP1 immunoprecipitated with anti-53BP1 and Protein-A agarose from lysate of untreated (interphase) U2OS cells; blotted for Plk1
[2] = biological target: p53-binding protein-1 (53BP1), endogenous (human (endogenous in U2OS)) (UniProt Q12888); experiment: co-IP; 53BP1 immunoprecipitated with anti-53BP1 and Protein-A agarose from 500 µg lysate of mitotic U2OS cells (paclitaxel 16 h, shake-off); blotted for Plk1
[3] = biological target: Polo-like kinase-1 (Plk1), endogenous (human (endogenous in U2OS)) (UniProt P53350); experiment: co-IP; anti-Plk1 immunoprecipitation from lysate of untreated U2OS cells; blotted for Plk1 and 53BP1
[4] = biological target: Polo-like kinase-1 (Plk1), endogenous (human (endogenous in U2OS)) (UniProt P53350); experiment: co-IP; anti-Plk1 immunoprecipitation from lysate of U2OS cells treated with nocodazole for 16 h; blotted for Plk1 and 53BP1

Row | Substance | binding [1] | binding [2] | binding [3] | binding [4]
1 | Polo-like kinase-1 (Plk1), endogenous (from UniProt P53350 1-603) (enzyme) | no binding (condition: interphase cells) | binds | – | –
2 | p53-binding protein-1 (53BP1), endogenous (from UniProt Q12888 1-1972) | – | – | no binding (condition: interphase cells) | binds
